In paper PMC6960117:
Results are given in words; binding and its absence hold for the method and conditions named. In cells and extracts the contact can be indirect. These calls come from enrichment with a bait or labelling near it, and not all partners need be listed.

Target: His-tagged Dpo41, putative tail fiber protein (ep3_0041) of phage vB_EcoM-ep3 (phage vB_EcoM-ep3)
Assay: affinity purification with mass spectrometry; His-tagged Dpo41 incubated with a cell lysate of E. coli strain O78-6; co-immunoprecipitate on silver stained SDS-polyacrylamide gel, bands sent for mass spectrometry; only the target purified

B1: Lpp of E. coli strain O78-6 (protein, UniProt P69776 21-78)
chain: CSSNAKIDQLSSDVQTLNAKVDQLSNDVNAMRSDVQAAKDDAARANQRLDNMATKYRK
B1 was tested. Which binding did it give?
Its binding is “binds”.
